Source: doi:10.1101/2023.03.28.534447
Results are given in words; binding and its absence hold for the method and conditions named. Binding seen in cells or lysates may run through a third protein. Binding can be weak; no strength is given.

Amino acid sequences for entries named in this document (tags omitted). A change or cut given only in a name is not applied to a line headed by its entry.
UniProt Q14703: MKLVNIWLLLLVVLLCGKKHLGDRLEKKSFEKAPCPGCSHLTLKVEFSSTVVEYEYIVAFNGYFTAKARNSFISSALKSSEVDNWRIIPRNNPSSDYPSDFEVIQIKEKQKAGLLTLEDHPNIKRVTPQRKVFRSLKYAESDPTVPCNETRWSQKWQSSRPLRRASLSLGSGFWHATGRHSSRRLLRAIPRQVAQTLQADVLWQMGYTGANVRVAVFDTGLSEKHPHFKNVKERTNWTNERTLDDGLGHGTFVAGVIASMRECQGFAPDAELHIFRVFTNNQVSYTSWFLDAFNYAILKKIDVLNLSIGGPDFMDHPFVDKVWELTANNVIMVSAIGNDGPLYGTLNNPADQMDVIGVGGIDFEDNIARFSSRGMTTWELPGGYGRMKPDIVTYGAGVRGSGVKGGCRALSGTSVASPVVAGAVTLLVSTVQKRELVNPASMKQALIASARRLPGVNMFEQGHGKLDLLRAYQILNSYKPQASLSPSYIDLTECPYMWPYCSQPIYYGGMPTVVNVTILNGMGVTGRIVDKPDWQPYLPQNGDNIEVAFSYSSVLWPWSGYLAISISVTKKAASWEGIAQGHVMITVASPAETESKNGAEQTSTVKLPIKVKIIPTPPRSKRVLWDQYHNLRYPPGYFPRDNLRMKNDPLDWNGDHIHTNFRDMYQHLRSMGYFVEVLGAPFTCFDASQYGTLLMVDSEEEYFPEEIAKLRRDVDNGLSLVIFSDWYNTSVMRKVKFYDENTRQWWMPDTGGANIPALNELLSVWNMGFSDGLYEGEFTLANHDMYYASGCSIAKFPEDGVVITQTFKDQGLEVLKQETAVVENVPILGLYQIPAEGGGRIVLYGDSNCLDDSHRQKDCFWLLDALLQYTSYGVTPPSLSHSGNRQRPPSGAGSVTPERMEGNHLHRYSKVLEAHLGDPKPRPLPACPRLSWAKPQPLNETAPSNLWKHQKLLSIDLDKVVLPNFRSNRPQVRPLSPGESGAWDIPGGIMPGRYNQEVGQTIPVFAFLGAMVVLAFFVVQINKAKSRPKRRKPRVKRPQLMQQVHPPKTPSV

Biological target: Site-1 protease (S1P), proS1P (UniProt Q14703)
Experiment: co-IP

binding: binds
B1: SPRING (C12ORF49) (protein, UniProt Q9H741 1-205)
chain: MVNLAAMVWRRLLRKRWVLALVFGLSLVYFLSSTFKQEERAVRDRNLLQVHDHNQPIPWKVQFNLGNSSRPSNQCRNSIQGKHLITDELGYVCERKDLLVNGCCNVNVPSTKQYCCDGCWPNGCCSAYEYCVSCCLQPNKQLLLERFLNRAAVAFQNLFMAVEDHFELCLAKCRTSSQSVQHENTYRDPIAKYCYGESPPELFPA
